{"source": "patent US20220411847A1", "about": "“GLUCOSE/GALACTOSE BIOSENSORS AND METHODS OF USING SAME” (Duke University, priority 2015, published 2022)", "test": "Ca2+ binding followed through thermal stability shifts in the absence of glucose", "conditions": "37° C., read-out: three low-affinity Ca^2+-binding sites in the denatured state", "from_the_text": "GGBP binds Ca^2+ at a location remote from glucose (FIG. 1). The binding of Ca^2+ was investigated in the absence of glucose (FIG. 12). […] Nevertheless, Ca^2+ binding can be followed through its effect on protein stability (FIG. 13). […] However, at elevated concentrations, this stabilization effect levels off and addition of Ca^2+ becomes destabilizing. […] These effects can be modeled accurately by a fit of the ligand- and temperature-dependent free energy of stability for Ca^2+ (Judge et al. Diabetes Technol. Thera. 2011, 13, 309-317; Layton et al. Biochemistry 2010, 49, 10831-10841). The individual terms are cast in terms of T and [Ca^2+] using equations 4-9. However, rather than fitting fluorescent landscape data directly using 1, Tm and ΔHu, values are extracted at each Ca^2+ concentration using 16 and 17, and fit to the equation system by determining the root of 19 to obtain the calculated Tm value.", "note": "Some of these results come from one statement about several compounds together."}
{"substance": "GGBP183C⋅acrylodan: E. coli glucose-galactose binding protein W183C mutant conjugated to acrylodan; parent sensor", "values": [{"measurement": "Kd", "value": "0.4 to 12", "unit": "mM"}]}
